Assay results from US12209142B2, “SARS-CoV-2 epitope-targeted peptide immunostimulants” (Institute for Systems Biology, priority 2020, dated 2025).
For at least one compound, name, drawing or mass did not settle the structure. Where a SMILES comes first, the peptide text is derived from it. Bridges are numbered along the chain shown (N, C = ends). Triazole bridges read from a SMILES are 1,4-linked. [ ]: non-standard residue; d: D form. The star is where a group is joined. Biotin = O=C1N[C@H]2[C@H](CS[C@H]2CCCCC(=O)*)N1; Lys(N3) = [N-]=[N+]=NCCCC[C@H](N)C(=O)O; PEG5 = NCCOCCOCCOCCOCCOCCC(=O)O; Pra = C#CC[C@H](N)C(=O)O

Protein sequences, listed by entry. Tags and fused reporters are not part of them. Residues count along the entry.
UniProt P12267, 23-202: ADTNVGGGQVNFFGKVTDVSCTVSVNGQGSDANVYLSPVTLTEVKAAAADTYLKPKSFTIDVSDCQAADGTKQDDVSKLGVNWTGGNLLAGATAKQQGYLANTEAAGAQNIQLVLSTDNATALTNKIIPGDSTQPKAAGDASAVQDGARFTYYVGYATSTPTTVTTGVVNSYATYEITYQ

Molecular target: T1, full-length recombinant MrkA protein (Klebsiella pneumoniae, UniProt P12267)
T1 construct: purchased MyBiosource MBS1248970
Experiment: Sandwich ELISA of PCC binding to full-length MrkA
Conditions: read-out: EC50 value to full-length recombinant MrkA protein, biotinylated PCC immobilized
Procedure: The screen yielded 26 hits (Table 2) that were sequenced, scaled up, and tested for binding to full-length recombinant MrkA in solution by single-point sandwich Enzyme-linked immunoassays (ELISAs) (FIG. 8). HPraGly is present before X1 in each peptide and Az4 follows X5 in each peptide.
An alanine scan was performed to establish which residues of cy(LLFFF) (SEQ ID NO:5) contribute most to MrkA binding. In this assay, a sandwich ELISA is used to quantify the affinity of several cy(LLFFF) (SEQ ID NO:5) analogues, in which one residue is substituted with an alanine, towards full-length MrkA protein. The ELISA results in FIG. 4 show lower signal for every alanine-substituted cy(LLFFF) (SEQ ID NO:5) analogue compared to unmodified cy(LLFFF) (SEQ ID NO:5), establishing that the native compound has the highest affinity. […] Thus, these two C-terminal phenylalanine residues (FIG. 3A, arrows in inset) play critical roles in MrkA binding, and are targets for modifications to improve binding. Another important detail of these alanine scan results is a strong dependence of MrkA binding on the residue position, independent of residue type. For example, cy(LLAFF) (SEQ ID NO:9) and cy(LLFFA) (SEQ ID NO:11) have very different binding affinities, despite having the same phenylalanine-to-alanine substitution.
In vitro ELISA assays. […]

Structure (SMILES): CC(C)C[C@@H]1NC(=O)[C@@H](NC(=O)CCOCCOCCOCCOCCOCCNC(=O)CCCC[C@@H]2SC[C@@H]3NC(=O)N[C@@H]32)Cc2cn(nn2)CCCC[C@@H](C(N)=O)NC(=O)[C@H](Cc2ccccc2)NC(=O)[C@H](Cc2ccccc2)NC(=O)[C@H](Cc2ccccc2)NC(=O)[C@H](CC(C)C)NC1=O [cy(LLFFF)] ({Biotin-PEG5}-[Pra]LLFFF[Lys(N3)]-NH2; triazole 1-7; N-terminus and C-terminus assumed)
- EC50: 0.23 µM
